For at least one compound, name, drawing or mass did not settle the structure.
What was measured:
[1] = system: rat ventricular cardiomyocytes; assay: Nitric oxide (NO) measurement, DAF fluorescence in cardiomyocytes; format: cell-based; details: co-incubation with N-Shh; L-NNA 100 μM, LY 25 μM
[2] = system: rat ventricular cardiomyocytes; assay: Ca2+ transient and cell shortening (sarcomere length, indo-1) under field stimulation; format: cell-based; details: co-incubation; Ccl 30 μM, LY 25 μM, L-NNA 100 μM

Structure (SMILES): O=c1cc(N2CCOCC2)oc2c(-c3ccccc3)cccc12 [LY294002]
- effect on N-Shh-induced NO production [1]: inhibited
- effect on reduction of cell shortening and Ca2+ transient amplitude induced by N-Shh [2]: fully abolished

Source: patent publication US9987327B2, “Methods for treating myocardial infarction comprising administering sonic hedgehog” (INSERM (INSTITUT NATIONAL DE LA SANTE ET DE EA RECHERCHE …, priority 2013, dated 2018)
